Assay results: publication PMC9561125
Substitutions are numbered along the chain they refer to. These are yes or no findings as the source states them, for the method shown. Binding seen in cells or lysates may run through a third protein. Some entries that bind do so weakly or less than the wild type. Tags and fused reporters may be left off the sequences shown.

The chains behind the UniProt entries cited, without tags or fusion partners. Residues count along the entry.
UniProt A5YKK6, residues 1-551: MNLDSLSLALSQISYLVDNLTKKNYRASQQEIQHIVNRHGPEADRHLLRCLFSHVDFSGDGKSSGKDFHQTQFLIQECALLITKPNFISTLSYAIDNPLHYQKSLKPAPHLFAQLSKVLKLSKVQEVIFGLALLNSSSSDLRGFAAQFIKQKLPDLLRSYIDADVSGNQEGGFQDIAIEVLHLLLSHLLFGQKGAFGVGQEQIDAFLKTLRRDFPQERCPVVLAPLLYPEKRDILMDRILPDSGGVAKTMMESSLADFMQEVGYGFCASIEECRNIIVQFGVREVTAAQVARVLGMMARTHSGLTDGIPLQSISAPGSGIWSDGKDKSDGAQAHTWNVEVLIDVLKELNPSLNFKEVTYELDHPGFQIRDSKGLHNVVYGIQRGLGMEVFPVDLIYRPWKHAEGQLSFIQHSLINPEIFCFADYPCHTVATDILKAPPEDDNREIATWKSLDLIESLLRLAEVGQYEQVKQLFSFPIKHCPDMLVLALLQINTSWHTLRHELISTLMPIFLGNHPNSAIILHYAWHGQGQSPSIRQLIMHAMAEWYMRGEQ
UniProt P60321: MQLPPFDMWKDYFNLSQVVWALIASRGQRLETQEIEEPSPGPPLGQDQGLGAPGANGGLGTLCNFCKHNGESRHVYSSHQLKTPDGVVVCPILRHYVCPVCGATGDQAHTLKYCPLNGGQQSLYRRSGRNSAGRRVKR

Key:
[1] = molecular target: T1, Myc-tagged mutated DND1 (E71A) (human) (UniProt Q8IYX4); experiment: co-IP; HEK293T cells co-transfected; lysis buffer 50 mM Tris pH 7.5, 150 mM NaCl, 5 mM EDTA, 0.1% NP-40 with PMSF, protease inhibitors and MG132; anti-c-Myc beads, 4 °C, 2-3 h; six washes; blotted with Myc and mCherry or GFP antibodies
T1 sequence: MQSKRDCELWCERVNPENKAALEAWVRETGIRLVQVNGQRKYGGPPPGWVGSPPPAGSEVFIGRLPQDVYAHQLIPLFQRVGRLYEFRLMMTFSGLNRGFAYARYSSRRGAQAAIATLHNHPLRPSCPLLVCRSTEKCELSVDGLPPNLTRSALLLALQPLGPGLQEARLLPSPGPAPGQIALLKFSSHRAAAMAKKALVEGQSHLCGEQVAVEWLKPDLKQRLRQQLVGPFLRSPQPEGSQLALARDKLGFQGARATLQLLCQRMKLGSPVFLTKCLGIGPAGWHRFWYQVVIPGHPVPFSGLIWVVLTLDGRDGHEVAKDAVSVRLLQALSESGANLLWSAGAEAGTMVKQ

[2] = molecular target: T2, Myc-tagged wild-type DND1 (human) (UniProt Q8IYX4); experiment: as above
T2 sequence: T1 sequence with A71E

GFP-tagged CNOT1(1-551) (from UniProt A5YKK6 1-551) (domain or fragment)
binding [1]: binds
binding [2]: binds

mCherry-tagged NANOS2 (from UniProt P60321 1-138)
binding [2]: binds
